This experiment relates to SMN2-luciferase reporter. Briefly: SMN2-luciferase reporter assay (clonal HEK-293 SMN2-luc cells). The class given is cell-based, human. As for the experimental part: The reporter cell lines were plated at 50,000 cells per well in 96-well plates and incubated overnight. Compounds were added to each well and incubated at 37° C. overnight. The final DMSO concentration was 0.1%. Luciferase activity was assayed using either STEADYGLO (PROMEGA E2510) or DUALGLO (PROMEGA E2920) luciferase using the WALLAC ENVISION multilabel reader. For detailed assay conditions see Table 2A. All data points were transformed from CPS to percent increase over basal expression in the treated control wells (DMSO or H2O as appropriate).
Plates were sealed with porous paper tape and incubated for 24 hours. […] For comparison, data points were transformed from CPS to percent activation over basal expression in the DMSO treated control wells.
For comparison, all data points are expressed as percent increase over basal luciferase expression in the control cells.
For orientation: A reporter such as luciferase makes a cellular process visible.

pEC50: −log10 of the molar value.

As to `O=C(CCCCCCC(=O)Nc1ccccc1)NO` [SAHA, suberoylanilide hydroxamic acid], the pEC50 (usually −log10 of the EC50, conventionally taken in molar units) (Homo sapiens, HEK293, cell-based reporter, known SMN2 modulating compounds) was 4.92. For the same molecule, the Max. fold increase (cell-based reporter response to known SMN2 modulating compounds) is 15 fold.

Values taken from patent US9212209B2, “Screening methods for spinal muscular atrophy” (Indiana University Research and Technology Corporation, priority 2012, dated 2015).
